Values of other authors as cited in US6630464B1, “Cyclin dependent kinase (CDK)4 inhibitors and their use for treating cancer” (The United States of America as represented by the …, priority 1997, dated 2003).
At least one structure is not confirmed: it was looked up by name or label, or the drawing left a doubt.

Details: cited from earlier work

C[C@@H]1[C@]2(O[C@H]3C=C4[C@@H]5CC[C@H]6Cc7nc8c(nc7C[C@]6(C)[C@H]5C[C@@H](O)[C@]4(C)[C@]31O)C[C@@H]1CC[C@H]3C4=CC[C@@H]5[C@H](C)[C@@]6(OC[C@]45C(=O)C[C@@H]3[C@@]1(C)C8)OC(C)(C)C[C@H]6O)O[C@](C)(CO)C[C@H]2O [cephalostatin 1, reference compound]
ED50, antitumor activity in vitro: 10^−7 to 10^−9 μg/ml
